Data: paper doi:10.1101/059964
No constants are given. Whether binding was seen depends on the method and setting. In cells and extracts the contact can be indirect. These calls come from enrichment with a bait or labelling near it, and not all partners need be listed. For part of these data: No binding means not detected with the bait. One block for each substance: values may come before it.

Chains of the proteins cited; added tags and fusions are not shown.
UniProt Q92800: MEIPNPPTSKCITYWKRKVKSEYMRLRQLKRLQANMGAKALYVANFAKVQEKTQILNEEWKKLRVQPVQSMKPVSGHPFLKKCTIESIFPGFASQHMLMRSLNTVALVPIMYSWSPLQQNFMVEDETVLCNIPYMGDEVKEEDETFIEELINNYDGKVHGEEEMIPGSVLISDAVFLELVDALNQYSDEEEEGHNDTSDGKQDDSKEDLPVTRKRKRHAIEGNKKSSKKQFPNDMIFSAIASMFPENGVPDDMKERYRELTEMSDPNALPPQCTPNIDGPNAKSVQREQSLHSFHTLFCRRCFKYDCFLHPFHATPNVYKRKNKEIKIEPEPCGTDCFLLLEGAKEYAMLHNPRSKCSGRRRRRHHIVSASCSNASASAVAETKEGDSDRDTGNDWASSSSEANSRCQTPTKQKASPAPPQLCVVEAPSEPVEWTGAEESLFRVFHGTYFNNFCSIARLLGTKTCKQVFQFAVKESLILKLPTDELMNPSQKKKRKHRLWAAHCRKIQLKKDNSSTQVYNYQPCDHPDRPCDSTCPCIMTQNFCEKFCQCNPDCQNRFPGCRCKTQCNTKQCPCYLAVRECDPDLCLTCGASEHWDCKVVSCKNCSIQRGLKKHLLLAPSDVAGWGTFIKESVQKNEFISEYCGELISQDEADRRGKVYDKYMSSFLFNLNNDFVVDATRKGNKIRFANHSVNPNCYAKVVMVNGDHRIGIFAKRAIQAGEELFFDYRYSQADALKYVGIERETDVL
UniProt Q13185: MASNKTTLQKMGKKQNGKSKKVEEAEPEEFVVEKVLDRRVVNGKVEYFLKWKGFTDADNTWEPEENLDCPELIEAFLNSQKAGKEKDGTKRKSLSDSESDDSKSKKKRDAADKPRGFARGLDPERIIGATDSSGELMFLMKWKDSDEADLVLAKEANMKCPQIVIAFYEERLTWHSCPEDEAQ
UniProt P61244: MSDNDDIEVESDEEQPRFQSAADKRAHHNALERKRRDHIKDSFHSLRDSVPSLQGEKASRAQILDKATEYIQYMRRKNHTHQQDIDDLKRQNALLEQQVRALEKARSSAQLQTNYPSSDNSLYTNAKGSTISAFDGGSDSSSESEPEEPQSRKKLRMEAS
UniProt Q15910: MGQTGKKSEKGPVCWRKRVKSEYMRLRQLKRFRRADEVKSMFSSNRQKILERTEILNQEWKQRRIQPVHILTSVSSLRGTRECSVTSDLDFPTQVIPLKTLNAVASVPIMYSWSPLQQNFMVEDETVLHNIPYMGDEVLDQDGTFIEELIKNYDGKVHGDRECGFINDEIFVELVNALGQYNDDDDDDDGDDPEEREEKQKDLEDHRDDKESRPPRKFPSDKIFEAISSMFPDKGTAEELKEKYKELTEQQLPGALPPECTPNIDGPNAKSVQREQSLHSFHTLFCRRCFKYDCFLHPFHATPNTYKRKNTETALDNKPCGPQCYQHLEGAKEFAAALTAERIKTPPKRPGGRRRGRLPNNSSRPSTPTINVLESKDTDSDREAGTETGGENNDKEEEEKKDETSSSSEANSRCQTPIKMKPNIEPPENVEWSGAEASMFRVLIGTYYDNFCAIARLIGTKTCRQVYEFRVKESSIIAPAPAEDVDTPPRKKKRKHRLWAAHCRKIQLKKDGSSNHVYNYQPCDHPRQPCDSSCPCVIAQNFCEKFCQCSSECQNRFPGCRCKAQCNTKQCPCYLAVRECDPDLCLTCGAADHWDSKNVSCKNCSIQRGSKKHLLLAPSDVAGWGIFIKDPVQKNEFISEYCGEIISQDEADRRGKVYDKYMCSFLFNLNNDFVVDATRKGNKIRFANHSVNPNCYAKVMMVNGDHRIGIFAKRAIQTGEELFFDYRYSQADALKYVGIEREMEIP
UniProt P83916: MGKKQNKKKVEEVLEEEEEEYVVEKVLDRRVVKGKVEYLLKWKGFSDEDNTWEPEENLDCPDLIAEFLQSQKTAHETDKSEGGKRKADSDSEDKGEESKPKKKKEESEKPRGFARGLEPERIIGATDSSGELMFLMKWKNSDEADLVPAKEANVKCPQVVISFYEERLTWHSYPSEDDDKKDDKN
UniProt Q9Y483: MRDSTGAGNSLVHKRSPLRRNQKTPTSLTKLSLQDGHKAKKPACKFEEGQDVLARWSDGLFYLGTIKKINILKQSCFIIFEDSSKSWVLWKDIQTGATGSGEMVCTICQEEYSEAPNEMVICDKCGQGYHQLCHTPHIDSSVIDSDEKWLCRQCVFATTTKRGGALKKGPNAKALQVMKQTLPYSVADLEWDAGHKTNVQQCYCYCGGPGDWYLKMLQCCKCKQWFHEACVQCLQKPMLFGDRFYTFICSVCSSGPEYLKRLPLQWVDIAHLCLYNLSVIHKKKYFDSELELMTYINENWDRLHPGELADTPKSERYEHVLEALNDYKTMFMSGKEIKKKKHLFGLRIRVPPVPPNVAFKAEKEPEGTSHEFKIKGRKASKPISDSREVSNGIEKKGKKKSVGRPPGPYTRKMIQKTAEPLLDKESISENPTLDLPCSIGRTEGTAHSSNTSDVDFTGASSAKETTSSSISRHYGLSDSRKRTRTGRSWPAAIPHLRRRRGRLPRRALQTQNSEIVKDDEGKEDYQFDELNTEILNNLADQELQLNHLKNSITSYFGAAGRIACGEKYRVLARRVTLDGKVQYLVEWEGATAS
UniProt O43189: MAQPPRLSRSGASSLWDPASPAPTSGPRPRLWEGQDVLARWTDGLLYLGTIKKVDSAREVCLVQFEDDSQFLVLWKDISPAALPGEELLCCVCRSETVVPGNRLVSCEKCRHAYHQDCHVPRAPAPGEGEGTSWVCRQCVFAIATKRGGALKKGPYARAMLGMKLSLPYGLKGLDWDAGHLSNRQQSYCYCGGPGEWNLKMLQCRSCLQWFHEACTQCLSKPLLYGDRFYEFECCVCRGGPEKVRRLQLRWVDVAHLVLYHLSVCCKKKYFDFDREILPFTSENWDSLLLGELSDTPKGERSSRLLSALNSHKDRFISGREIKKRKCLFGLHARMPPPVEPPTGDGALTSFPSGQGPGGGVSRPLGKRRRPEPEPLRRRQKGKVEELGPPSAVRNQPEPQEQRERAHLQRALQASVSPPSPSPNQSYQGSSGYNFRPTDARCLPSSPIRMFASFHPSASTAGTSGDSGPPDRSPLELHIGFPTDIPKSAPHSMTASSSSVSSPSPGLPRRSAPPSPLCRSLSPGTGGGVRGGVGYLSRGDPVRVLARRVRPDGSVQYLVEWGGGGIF
UniProt Q9BSM1: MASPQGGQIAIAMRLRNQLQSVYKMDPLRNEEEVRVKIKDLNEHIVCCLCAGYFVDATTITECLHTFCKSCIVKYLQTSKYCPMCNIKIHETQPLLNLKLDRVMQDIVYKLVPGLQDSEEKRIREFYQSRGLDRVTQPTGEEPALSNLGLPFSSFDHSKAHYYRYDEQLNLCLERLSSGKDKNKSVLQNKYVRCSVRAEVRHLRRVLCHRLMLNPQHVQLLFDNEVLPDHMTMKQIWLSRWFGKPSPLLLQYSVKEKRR
UniProt Q86SE9: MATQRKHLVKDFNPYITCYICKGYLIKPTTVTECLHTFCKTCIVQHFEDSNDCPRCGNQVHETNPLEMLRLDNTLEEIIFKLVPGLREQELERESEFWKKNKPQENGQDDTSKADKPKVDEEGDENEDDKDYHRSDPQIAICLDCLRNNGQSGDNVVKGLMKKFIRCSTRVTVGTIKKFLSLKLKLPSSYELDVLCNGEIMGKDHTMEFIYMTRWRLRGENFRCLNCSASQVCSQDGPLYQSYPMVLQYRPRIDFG
UniProt O95785: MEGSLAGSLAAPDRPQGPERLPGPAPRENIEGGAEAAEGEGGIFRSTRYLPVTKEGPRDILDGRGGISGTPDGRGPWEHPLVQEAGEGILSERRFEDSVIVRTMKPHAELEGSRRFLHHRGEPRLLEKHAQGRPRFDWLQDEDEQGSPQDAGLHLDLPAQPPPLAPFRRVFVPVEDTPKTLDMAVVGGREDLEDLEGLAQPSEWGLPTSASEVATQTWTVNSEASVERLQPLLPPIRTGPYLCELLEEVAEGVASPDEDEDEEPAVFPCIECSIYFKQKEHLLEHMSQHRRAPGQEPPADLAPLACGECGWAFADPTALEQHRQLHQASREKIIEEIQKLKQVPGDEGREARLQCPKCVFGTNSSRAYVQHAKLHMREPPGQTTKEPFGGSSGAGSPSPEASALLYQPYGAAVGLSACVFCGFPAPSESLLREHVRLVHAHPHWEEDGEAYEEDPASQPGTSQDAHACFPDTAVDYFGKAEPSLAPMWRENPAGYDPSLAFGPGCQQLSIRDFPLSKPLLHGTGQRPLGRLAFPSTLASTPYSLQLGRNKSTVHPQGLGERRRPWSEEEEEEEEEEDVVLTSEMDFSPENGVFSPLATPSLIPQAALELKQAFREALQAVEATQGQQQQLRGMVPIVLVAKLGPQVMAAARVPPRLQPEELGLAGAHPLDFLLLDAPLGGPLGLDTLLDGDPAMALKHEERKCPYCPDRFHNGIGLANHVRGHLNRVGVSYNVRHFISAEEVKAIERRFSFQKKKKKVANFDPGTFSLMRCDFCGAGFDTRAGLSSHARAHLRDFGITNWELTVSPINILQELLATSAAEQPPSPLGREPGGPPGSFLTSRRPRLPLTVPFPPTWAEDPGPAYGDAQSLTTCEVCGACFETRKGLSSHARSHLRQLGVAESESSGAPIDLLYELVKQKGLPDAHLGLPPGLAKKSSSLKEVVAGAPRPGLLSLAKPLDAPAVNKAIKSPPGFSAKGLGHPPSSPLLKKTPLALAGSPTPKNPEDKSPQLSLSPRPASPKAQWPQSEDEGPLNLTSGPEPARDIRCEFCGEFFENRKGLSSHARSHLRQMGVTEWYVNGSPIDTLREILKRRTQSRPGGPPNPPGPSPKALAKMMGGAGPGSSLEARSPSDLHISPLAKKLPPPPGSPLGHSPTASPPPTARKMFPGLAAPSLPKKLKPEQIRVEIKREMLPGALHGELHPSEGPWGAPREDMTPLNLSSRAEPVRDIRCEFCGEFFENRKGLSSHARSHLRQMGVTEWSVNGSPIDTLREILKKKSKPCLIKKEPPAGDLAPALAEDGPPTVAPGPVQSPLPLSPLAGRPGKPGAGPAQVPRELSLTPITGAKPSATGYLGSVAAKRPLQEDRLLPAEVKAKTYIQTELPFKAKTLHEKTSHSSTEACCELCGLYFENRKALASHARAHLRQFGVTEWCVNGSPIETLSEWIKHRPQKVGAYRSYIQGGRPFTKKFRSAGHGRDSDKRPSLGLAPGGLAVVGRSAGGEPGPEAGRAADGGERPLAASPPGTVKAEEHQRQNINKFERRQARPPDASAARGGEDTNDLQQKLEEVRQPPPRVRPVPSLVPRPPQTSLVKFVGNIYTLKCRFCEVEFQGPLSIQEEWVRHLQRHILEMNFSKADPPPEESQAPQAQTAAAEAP
UniProt P63208: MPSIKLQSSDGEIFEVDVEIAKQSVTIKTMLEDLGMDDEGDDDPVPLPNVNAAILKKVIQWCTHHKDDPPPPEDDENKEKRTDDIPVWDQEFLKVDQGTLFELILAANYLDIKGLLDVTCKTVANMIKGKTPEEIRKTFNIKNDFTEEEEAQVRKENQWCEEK
UniProt Q9HCM7: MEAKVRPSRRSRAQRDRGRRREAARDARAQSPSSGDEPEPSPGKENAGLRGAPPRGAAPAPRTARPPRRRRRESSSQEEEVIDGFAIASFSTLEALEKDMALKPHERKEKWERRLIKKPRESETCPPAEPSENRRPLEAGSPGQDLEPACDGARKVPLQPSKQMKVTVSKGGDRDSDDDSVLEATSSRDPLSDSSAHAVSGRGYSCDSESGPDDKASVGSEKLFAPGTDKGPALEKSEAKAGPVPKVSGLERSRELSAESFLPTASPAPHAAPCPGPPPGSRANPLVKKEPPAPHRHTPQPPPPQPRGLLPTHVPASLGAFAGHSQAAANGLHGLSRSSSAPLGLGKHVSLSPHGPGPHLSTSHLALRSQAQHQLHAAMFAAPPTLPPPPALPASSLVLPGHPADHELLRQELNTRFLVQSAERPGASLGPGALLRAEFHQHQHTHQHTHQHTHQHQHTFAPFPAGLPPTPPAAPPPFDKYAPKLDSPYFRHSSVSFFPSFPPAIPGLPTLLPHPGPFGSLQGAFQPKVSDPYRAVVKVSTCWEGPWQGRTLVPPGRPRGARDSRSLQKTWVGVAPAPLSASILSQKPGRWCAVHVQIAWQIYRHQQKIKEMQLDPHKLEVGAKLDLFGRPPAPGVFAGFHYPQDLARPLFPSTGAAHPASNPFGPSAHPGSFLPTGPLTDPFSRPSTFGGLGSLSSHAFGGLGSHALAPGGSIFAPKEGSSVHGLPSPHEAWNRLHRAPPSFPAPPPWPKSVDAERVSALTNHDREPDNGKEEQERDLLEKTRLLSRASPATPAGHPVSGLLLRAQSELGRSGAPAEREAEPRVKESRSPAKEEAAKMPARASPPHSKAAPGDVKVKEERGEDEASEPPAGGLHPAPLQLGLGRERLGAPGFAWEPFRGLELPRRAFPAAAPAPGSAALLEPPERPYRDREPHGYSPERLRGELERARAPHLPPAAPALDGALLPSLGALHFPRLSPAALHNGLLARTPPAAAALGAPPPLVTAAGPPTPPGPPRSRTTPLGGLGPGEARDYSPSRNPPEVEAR

What was measured:
Test in all cases: affinity purification with mass spectrometry
[1] = target: C10ORF12 (human) (UniProt Q96JN0)
[2] = target: EED (human) (UniProt O75530)
[3] = target: EZH1 (human) (UniProt Q92800)
[4] = target: RBBP7 (human) (UniProt Q16576)
[5] = target: CBX3 (human) (UniProt Q13185)
[6] = target: LMBL2 (human) (UniProt Q969R5)
[7] = target: MAX (human) (UniProt P61244)
[8] = target: TFDP1 (human) (UniProt Q14186)
[9] = target: C17ORF96 (human) (UniProt A6NHQ4)
[10] = target: EZH2 (human) (UniProt Q15910)
[11] = target: SUZ12 (human) (UniProt Q15022)
[12] = target: ASXL2 (human) (UniProt Q76L83)
[13] = target: ASXL1 (human) (UniProt Q8IXJ9)
[14] = target: E2F6 (human) (UniProt O75461)
[15] = target: T1, DCAF7 (human) (UniProt P61962)
T1 sequence: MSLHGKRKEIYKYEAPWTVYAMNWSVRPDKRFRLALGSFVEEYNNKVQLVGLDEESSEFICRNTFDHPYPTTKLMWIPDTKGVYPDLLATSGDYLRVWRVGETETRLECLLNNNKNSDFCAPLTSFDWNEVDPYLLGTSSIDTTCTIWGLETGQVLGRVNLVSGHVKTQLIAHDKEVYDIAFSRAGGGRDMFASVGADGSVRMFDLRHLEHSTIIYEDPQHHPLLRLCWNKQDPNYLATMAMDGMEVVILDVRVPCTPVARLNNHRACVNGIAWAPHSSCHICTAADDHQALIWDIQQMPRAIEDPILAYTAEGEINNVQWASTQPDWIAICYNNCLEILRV

[16] = target: T2, OGT1 (human) (UniProt O15294)
T2 sequence: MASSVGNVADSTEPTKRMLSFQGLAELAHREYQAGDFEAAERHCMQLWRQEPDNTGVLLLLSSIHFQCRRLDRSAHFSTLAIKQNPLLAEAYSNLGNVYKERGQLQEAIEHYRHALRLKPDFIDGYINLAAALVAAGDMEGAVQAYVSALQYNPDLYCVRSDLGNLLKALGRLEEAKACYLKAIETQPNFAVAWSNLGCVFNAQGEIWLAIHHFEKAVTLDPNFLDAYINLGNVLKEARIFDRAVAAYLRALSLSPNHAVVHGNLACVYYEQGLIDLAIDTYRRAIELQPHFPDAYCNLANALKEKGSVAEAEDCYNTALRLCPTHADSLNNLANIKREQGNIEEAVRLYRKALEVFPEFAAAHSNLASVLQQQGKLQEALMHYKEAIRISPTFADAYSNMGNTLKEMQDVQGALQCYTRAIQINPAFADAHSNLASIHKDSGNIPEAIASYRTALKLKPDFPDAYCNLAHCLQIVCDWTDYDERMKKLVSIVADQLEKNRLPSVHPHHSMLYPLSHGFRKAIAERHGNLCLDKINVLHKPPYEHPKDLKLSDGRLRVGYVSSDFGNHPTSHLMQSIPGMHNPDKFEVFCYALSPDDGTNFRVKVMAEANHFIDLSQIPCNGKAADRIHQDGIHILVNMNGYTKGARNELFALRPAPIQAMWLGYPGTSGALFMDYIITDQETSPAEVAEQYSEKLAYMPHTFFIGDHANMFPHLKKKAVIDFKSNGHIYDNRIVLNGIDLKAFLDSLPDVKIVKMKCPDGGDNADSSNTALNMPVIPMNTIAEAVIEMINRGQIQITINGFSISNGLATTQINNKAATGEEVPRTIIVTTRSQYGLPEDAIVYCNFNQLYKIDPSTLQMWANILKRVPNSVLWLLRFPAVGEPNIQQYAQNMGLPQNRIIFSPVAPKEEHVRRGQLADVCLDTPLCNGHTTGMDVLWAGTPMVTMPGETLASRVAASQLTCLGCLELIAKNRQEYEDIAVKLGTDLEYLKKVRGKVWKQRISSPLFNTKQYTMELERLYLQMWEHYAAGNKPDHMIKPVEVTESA

[17] = target: CBX1 (human) (UniProt P83916)
[18] = target: MTF2 (human) (UniProt Q9Y483)
[19] = target: PHF1 (human) (UniProt O43189)
[20] = target: PHF19 (human) (UniProt Q5T6S3)
[21] = target: RING1 (human) (UniProt Q06587)
[22] = target: T3, RYBP (human) (UniProt Q8N488)
T3 sequence: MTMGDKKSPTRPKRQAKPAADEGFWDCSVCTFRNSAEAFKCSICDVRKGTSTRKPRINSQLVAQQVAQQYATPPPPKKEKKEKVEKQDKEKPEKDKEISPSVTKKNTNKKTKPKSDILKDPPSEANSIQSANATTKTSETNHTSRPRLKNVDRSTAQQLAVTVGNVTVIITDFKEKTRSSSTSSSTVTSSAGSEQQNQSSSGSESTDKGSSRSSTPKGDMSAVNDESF

[23] = target: T4, YAF2 (human) (UniProt Q8IY57)
T4 sequence: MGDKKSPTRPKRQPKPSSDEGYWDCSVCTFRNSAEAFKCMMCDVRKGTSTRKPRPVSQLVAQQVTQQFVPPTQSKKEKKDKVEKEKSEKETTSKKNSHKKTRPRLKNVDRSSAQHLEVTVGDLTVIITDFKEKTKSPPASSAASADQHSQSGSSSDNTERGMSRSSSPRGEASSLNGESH

[24] = target: PCGF1 (human) (UniProt Q9BSM1)
[25] = target: CSK21 (human) (UniProt P68400)
[26] = target: CSK22 (human) (UniProt P19784)
[27] = target: RING2 (human) (UniProt Q99496)
[28] = target: T5, PCGF3 (human) (UniProt Q3KNV8)
T5 sequence: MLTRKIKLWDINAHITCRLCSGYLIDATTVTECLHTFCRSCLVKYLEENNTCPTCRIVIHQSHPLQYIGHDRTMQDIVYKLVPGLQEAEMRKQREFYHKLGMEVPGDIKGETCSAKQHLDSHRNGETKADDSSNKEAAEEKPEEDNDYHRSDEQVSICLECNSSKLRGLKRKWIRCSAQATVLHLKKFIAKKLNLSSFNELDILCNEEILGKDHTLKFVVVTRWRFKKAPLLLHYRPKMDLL

[29] = target: PCGF5 (human) (UniProt Q86SE9)
[30] = target: EHMT2 (human) (UniProt Q96KQ7)

binding [5]: binds
binding [6]: binds
binding [7]: binds
binding [8]: binds
Substance: E2F6 (from UniProt O75461 1-281)

binding [4]: binds
Substance: AEBP2 (from UniProt Q6ZN18 1-517)

binding [15]: binds
Substance: DIAP1 (from UniProt O60610 1-1272)

binding [17]: binds
binding [5]: binds
Substance: EHMT1 (from UniProt Q9H9B1 1-1298)

binding [21]: binds
binding [22]: binds
binding [23]: binds
Substance: PCGF1 (from UniProt Q9BSM1 1-259)

binding [21]: binds
binding [22]: binds
binding [23]: binds
Substance: PCGF4 (from UniProt P35226 1-326)

binding [15]: binds
Substance: ZN703 (from UniProt Q9H7S9 1-590)

binding [15]: binds
Substance: ZN503 (from UniProt Q96F45 1-646)

binding [16]: binds
Substance: ASH2L (from UniProt Q9UBL3 1-628)

binding [17]: binds
binding [5]: binds
Substance: EHMT2 (from UniProt Q96KQ7 1-1210)

binding [15]: binds
binding [28]: binds
binding [29]: binds
binding [21]: binds
binding [27]: binds
binding [23]: binds
Substance: CSK21 (from UniProt P68400 1-391)

binding [16]: binds
Substance: MLL1 (from UniProt Q03164)

binding [17]: binds
binding [5]: binds
binding [30]: binds
Substance: WIZ (from UniProt O95785 1-1651)

binding [5]: binds
binding [14]: binds
binding [6]: binds
binding [8]: binds
Substance: MAX (from UniProt P61244 1-160)

binding [15]: binds
binding [28]: binds
binding [29]: binds
binding [21]: binds
binding [27]: binds
binding [23]: binds
Substance: CSK22 (from UniProt P19784 1-350)

binding [4]: binds
Substance: JARD2 (from UniProt Q92833 1-1246)

binding [17]: binds
binding [5]: binds
binding [30]: binds
Substance: ZN462 (from UniProt Q96JM2 1-2506)

binding [13]: binds
binding [12]: binds
Substance: FOXK2 (from UniProt Q01167 1-660)

binding [24]: binds
Substance: BCORL (from UniProt Q5H9F3 1-1785)

The remaining lines, values behind:

Substance: PHF19 (from UniProt Q5T6S3 1-580)
binding [1]: binds
binding [2]: binds
binding [3]: binds
binding [4]: binds

Substance: MTF2 (from UniProt Q9Y483 1-593)
binding [1]: binds
binding [9]: binds
binding [2]: binds
binding [3]: binds
binding [10]: binds
binding [4]: binds
binding [11]: binds

Substance: ASXL1 (from UniProt Q8IXJ9 1-1541)
binding [12]: no binding

Substance: ASXL2 (from UniProt Q76L83 1-1435)
binding [13]: no binding

Substance: LMBL2 (from UniProt Q969R5 1-705)
binding [5]: binds
binding [14]: binds
binding [7]: binds
binding [8]: binds

Substance: SET1A (from UniProt O15047 1-1707)
binding [16]: binds

Substance: C10ORF12 (from UniProt Q96JN0-3)
binding [18]: binds
binding [19]: binds
binding [20]: binds

Substance: PHF1 (from UniProt O43189 1-567)
binding [1]: binds
binding [9]: binds
binding [2]: binds
binding [3]: binds
binding [10]: binds
binding [4]: binds
binding [11]: binds

Substance: BCOR (from UniProt Q6W2J9 1-1755)
binding [24]: binds

Substance: PCGF5 (from UniProt Q86SE9 1-256)
binding [25]: binds
binding [26]: binds
binding [15]: binds
binding [21]: binds
binding [27]: binds
binding [22]: binds
binding [23]: binds

Substance: SKP1 (from UniProt P63208 1-163)
binding [24]: binds

Substance: TFDP1 (from UniProt Q14186 1-410)
binding [5]: binds
binding [14]: binds
binding [6]: binds
binding [7]: binds

Substance: RING1 (from UniProt Q06587 1-406)
binding [27]: no binding

Substance: RBBP5 (from UniProt Q15291 1-538)
binding [16]: binds

Substance: C17ORF96 (from UniProt A6NHQ4 1-379)
binding [2]: binds
binding [3]: binds
binding [10]: binds
binding [18]: binds
binding [19]: binds
binding [4]: binds

Substance: TIF1B (from UniProt Q13263 1-835)
binding [17]: binds
binding [30]: binds

Substance: FBSL (from UniProt Q9HCM7 1-1045)
binding [15]: binds
binding [28]: binds
binding [29]: binds
binding [21]: binds
binding [27]: binds
binding [22]: binds
binding [23]: binds

Substance: CBX3 (from UniProt Q13185 1-183)
binding [14]: binds
binding [6]: binds
binding [7]: binds
binding [8]: binds
